Measurements published in the supplement of paper PMC8728848.
Some of the results follow.

Assays:
Assay in all cases: glycan array binding signal (z-score within array); higher = stronger binding
Conditions in all cases: glycan notation: IUPAC condensed, linker removed
[1] = target: Neu5Ac(a2-6)GlcNAc(b1-4)GlcNAc(b1-4)GlcNAc
Outline: (§1)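 From the Consortium for Functional Glycomics database, 3228 arrays were curated, keeping only those whose protein sequence was available. Binding is given as a within-array Z-score averaged across arrays sharing a protein sequence and across linkers. Negative Z-scores can be read as non-binding.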

Neu5Ac(a2-8)Neu5Ac = target: Neu5Ac(a2-8)Neu5Ac
Outline: as §1

[2] = target: Neu5Ac(a2-8)Neu5Ac(a2-3)Gal(b1-3)GalNAc(b1-4)[Neu5Ac(a2-3)]Gal(b1-4)Glc
Outline: as §1

[3] = target: Neu5Ac(a2-8)Neu5Ac(a2-3)Gal(b1-3)GalNAc(b1-4)[Neu5Ac(a2-8)Neu5Ac(a2-3)]Gal(b1-4)Glc
Outline: as §1

[4] = target: Neu5Ac(a2-8)Neu5Ac(a2-3)Gal(b1-4)Glc
Outline: as §1

[5] = target: Neu5Ac(a2-8)Neu5Ac(a2-3)Gal(b1-4)GlcNAc
Outline: as §1

[6] = target: Neu5Ac(a2-8)Neu5Ac(a2-3)[Gal(b1-3)GalNAc(b1-4)]Gal(b1-4)Glc
Outline: as §1

[7] = target: Neu5Ac(a2-8)Neu5Ac(a2-3)[GalNAc(b1-4)]Gal(b1-4)Glc
Outline: as §1

[8] = target: Neu5Ac(a2-8)Neu5Ac(a2-8)Neu5Ac
Outline: as §1

[9] = target: Neu5Ac(a2-8)Neu5Ac(a2-8)Neu5Ac(a2-3)Gal(b1-4)Glc
Outline: as §1

[10] = target: Neu5Ac(a2-8)Neu5Ac(a2-8)Neu5Ac(a2-3)[Gal(b1-3)GalNAc(b1-4)]Gal(b1-4)Glc
Outline: as §1

[11] = target: Neu5Ac(a2-8)Neu5Ac(a2-8)Neu5Ac(a2-3)[GalNAc(b1-4)]Gal(b1-4)Glc
Outline: as §1

[12] = target: Neu5Ac(a2-8)Neu5Ac(a2-8)Neu5Ac(a2-8)Neu5Ac(a2-3)[GalNAc(b1-4)]Gal(b1-4)Glc
Outline: as §1

[13] = target: Neu5Ac(a2-8)Neu5Gc(a2-3)Gal(b1-4)GlcNAc
Outline: as §1

[14] = target: Neu5Ac(b2-6)Gal(b1-4)GlcNAc
Outline: as §1

Neu5Ac(b2-6)GalNAc = target: Neu5Ac(b2-6)GalNAc
Outline: as §1

[15] = target: Neu5Ac9Ac(a2-3)Gal(b1-3)GlcNAc
Outline: as §1

[16] = target: Neu5Ac9Ac(a2-3)Gal(b1-4)GlcNAc
Outline: as §1

[17] = target: Neu5Ac9Ac(a2-6)Gal(b1-4)GlcNAc
Outline: as §1

[18] = target: Neu5Gc(a2-3)Gal(b1-3)GlcNAc
Outline: as §1

[19] = target: Neu5Gc(a2-3)Gal(b1-3)[Fuc(a1-4)]GlcNAc
Outline: as §1

Neu5Gc(a2-3)Gal(b1-4)Glc = target: Neu5Gc(a2-3)Gal(b1-4)Glc
Outline: as §1

[20] = target: Neu5Gc(a2-3)Gal(b1-4)GlcNAc
Outline: as §1

[21] = target: Neu5Gc(a2-3)Gal(b1-4)GlcNAc(b1-3)Gal(b1-4)GlcNAc(b1-2)Man(a1-3)[Neu5Gc(a2-3)Gal(b1-4)GlcNAc(b1-3)Gal(b1-4)GlcNAc(b1-2)Man(a1-6)]Man(b1-4)GlcNAc(b1-4)GlcNAc
Outline: as §1

[22] = target: Neu5Gc(a2-3)Gal(b1-4)[Fuc(a1-3)]GlcNAc
Outline: as §1

[23] = target: Neu5Gc(a2-6)Gal(b1-4)GlcNAc
Outline: as §1

Neu5Gc(a2-6)GalNAc = target: Neu5Gc(a2-6)GalNAc
Outline: as §1

[24] = target: Neu5Gc(a2-8)Neu5Ac(a2-3)Gal(b1-4)GlcNAc
Outline: as §1

[25] = target: Neu5Gc(a2-8)Neu5Gc(a2-3)Gal(b1-4)GlcNAc
Outline: as §1

[26] = target: Neu5Gc(a2-8)Neu5Gc(a2-3)Gal(b1-4)GlcNAc(b1-3)Gal(b1-4)GlcNAc
Outline: as §1

[27] = target: Neu5Gc(a2-8)Neu5Gc(a2-6)Gal(b1-4)GlcNAc
Outline: as §1

[28] = target: Neu5Gc(b2-6)Gal(b1-4)GlcNAc
Outline: as §1

B1: PX9916F-bfa-443-24-443 (Bacteroides fragilis) (protein)
chain: DIRPVGSVIPQTAEEYRALLARAYLNVPNDRGLACLRSDEMLVNDNEYDRNSYGDIERWNDVSPFPGTSQFTWSNFYNVLFIANQVIESQKEITEGTPEVVNQLVGEAHLLRAYLHFVLVNLHGQPYTKSGALNSKSIPLKLDTDLEKTLGRNTVEEVYTSILSDIEHARELINKEKWETVFSYRFNVLSVDALQSRVSLYMGAWPKCLESAEAVLAKKSVLVDMNETPLALPNHFESVESITALEQVMGSSVNNAVWVPATFLALYQEGDKRLAAYFAAPDENGNRKSSKGGKREFSCTFRVGELYLNAAEAAANMDKLPHARMRLLELMRKRYTPEAYDKKENAVNVMDKNALISEILNERARELAFEGHRWFDLRRTTRPRMVKVLQGKTYILEQDDPRYTIPIPRDAIAANPGLAN
glycan array binding signal (z-score) [1]: -0.341 | glycan array binding signal (z-score) (Neu5Ac(a2-8)Neu5Ac): 1.37 | glycan array binding signal (z-score) [2]: 1.05 | glycan array binding signal (z-score) [3]: 1.04 | glycan array binding signal (z-score) [4]: -0.701 | glycan array binding signal (z-score) [5]: -0.018 | glycan array binding signal (z-score) [6]: -0.864 | glycan array binding signal (z-score) [7]: -0.684 | glycan array binding signal (z-score) [8]: 0.106 | glycan array binding signal (z-score) [9]: -0.106 | glycan array binding signal (z-score) [10]: -0.222 | glycan array binding signal (z-score) [11]: -0.695 | glycan array binding signal (z-score) [12]: -0.835 | glycan array binding signal (z-score) [13]: -0.785 | glycan array binding signal (z-score) [14]: -1.15 | glycan array binding signal (z-score) (Neu5Ac(b2-6)GalNAc): -0.822 | glycan array binding signal (z-score) [15]: 0.036 | glycan array binding signal (z-score) [16]: -0.408 | glycan array binding signal (z-score) [17]: -0.27 | glycan array binding signal (z-score) [18]: 0.87 | glycan array binding signal (z-score) [19]: 0.039 | glycan array binding signal (z-score) (Neu5Gc(a2-3)Gal(b1-4)Glc): 1.51 | glycan array binding signal (z-score) [20]: -0.662 | glycan array binding signal (z-score) [21]: -0.443 | glycan array binding signal (z-score) [22]: 0.012 | glycan array binding signal (z-score) [23]: -0.35 | glycan array binding signal (z-score) (Neu5Gc(a2-6)GalNAc): -0.081 | glycan array binding signal (z-score) [24]: -0.804 | glycan array binding signal (z-score) [25]: -0.891 | glycan array binding signal (z-score) [26]: -1.06 | glycan array binding signal (z-score) [27]: -0.576 | glycan array binding signal (z-score) [28]: -0.32
